From patent US20080026474A1, “ASSAY FOR DIFFERENTIATING COMPOUNDS THAT MODULATE THE EXTRINSIC AND/OR INTRINSIC COAGULATION PATHWAYS” (Bristol-Myers Squibb Company, priority 2006, published 2008)

Tested on: thrombus formation in carotid artery
Assay: Rabbit ECAT model
Format: in vivo
Settings: ED80 (rabbit ECAT) versus 2×Base (human PRP)
Description: Briefly, male, New Zealand, white rabbits were anesthetized with ketamine (50 mg/kg+50 mg/kg/h i.m.) and xylazine (10 mg/kg+10 mg/kg/h i.m.). These anesthetics were supplemented as needed. An electromagnetic flow probe was placed on a segment of an isolated carotid artery to monitor blood flow. Thrombus formation was induced by electrical stimulation of the carotid artery for 3 min at 4 mA using an external stainless steel bipolar electrode. […] Plasma concentrations were determined in blood samples taken at the end of the experiment by liquid chromatography-tandem mass spectrometry.
Carotid blood flow was measured continuously over the 90-min period of thrombus formation and total carotid blood flow was calculated as an area under the carotid blood flow-time curve. Preservation of total CBF relative to sustained baseline flow was used to assess antithrombotic activity. The drug concentrations which maintained total blood flow at 80% of baseline (ED80) was the common comparator among antithrombotic agents.

SMILES | concentration needed to achieve ED80 in rabbit ECAT model relative to 2×Base concentration
NCc1ccccc1-n1nc(C(F)(F)F)cc1C(=O)Nc1ccc(-c2ccccc2S(N)(=O)=O)cc1F [1-(2-aminomethylphenyl)-3-trifluoromethyl-N-[3-fluoro-2′-(aminosulfonyl)[1,1′-biphenyl)]-4-yl]-1H-pyrazole-5-carboxyamide] | about 10 fold
COc1cc([C@@H]2Nc3ccc(C(=N)N)cc3[C@H]3c4ccccc4C[C@H]32)c(-c2ccc(C(=O)O)cc2)cc1O [Compound A, 2′-((6R,6aR,11bR)-2-Carbamimidoyl-5,6a,7,11b-tetrahydro-6H-indeno[2,1-c]quinolin-6-yl)-5′-hydroxy-4′-methoxy-biphenyl-4-carboxylic acid] | very similar
CS(=O)(=O)c1ccccc1-c1ccc(NC(=O)c2cc(C(F)(F)F)nn2-c2cccc(CN)c2)c(F)c1 [Compound B, 1-[3-(aminomethyl)phenyl]-N-[3-fluoro-2′-(methylsulfonyl)[1,1′-biphenyl]-4-yl]-3-(trifluoromethyl)-1H-pyrazole-5-carboxamide] | about 10 fold
